The match of structure and compound is tentative.
Molecular target: mGluR2 receptor (metabotropic glutamate receptor 2) (Homo sapiens, UniProt Q14416)
Test: mGluR2 Potentiator Screen, FLIPR, EC10-EC20 glutamate challenge
Description: Procedure for mGluR2 Potentiator Screen NLB Methods EC10-EC20 Challenge Cell Culture and Plating:
Cells used for this screen are HEK cells stably transfected with the mGluR2 receptor (metabotropic glutamate receptor 2) and the Gα15 G protein. Clones were identified by functional activity (FLIPR). Cells are grown in growth media containing: DMEM High Glucose with Glutamine and Na Pyruvate (GIBCO), 10% (v/v) Heat inactivate FBS (GIBCO) G418 500 ug/ml (from 50 mg/ml stock) (GIBCO) and Blasticidin 3 ug/ml (from 5 mg/ml stock made in H2O) (Invitrogen).
2 days before the assay cell are trypsinized with 0.25% trysin/EDTA (GIBCO), spun down at 1000 rpm for 5 minutes, resuspended in growth media and plated on polystyrene 384 well black wall/clear bottom poly-D-lysine coated plates at a density of approximately 18,000 cells/well in a volume of 50 μL per well. One day before the assay the growth media is removed from the plates by flicking and replaced with media containing DMEM High Glucose without Glutamine and Na Pyruvate (GIBCO) and 10% (v/v) dialyzed FBS (GIBCO). […]
Results are analyzed by dividing the peak fluorescent value of the FLIPR response by the […] to achieve a ratio response. The ratios are then analyzed by curve fitting programs. […]

The chains behind the UniProt entries cited, without tags or fusion partners. Residues count along the entry.
UniProt Q14416, 19-872 limits assumed: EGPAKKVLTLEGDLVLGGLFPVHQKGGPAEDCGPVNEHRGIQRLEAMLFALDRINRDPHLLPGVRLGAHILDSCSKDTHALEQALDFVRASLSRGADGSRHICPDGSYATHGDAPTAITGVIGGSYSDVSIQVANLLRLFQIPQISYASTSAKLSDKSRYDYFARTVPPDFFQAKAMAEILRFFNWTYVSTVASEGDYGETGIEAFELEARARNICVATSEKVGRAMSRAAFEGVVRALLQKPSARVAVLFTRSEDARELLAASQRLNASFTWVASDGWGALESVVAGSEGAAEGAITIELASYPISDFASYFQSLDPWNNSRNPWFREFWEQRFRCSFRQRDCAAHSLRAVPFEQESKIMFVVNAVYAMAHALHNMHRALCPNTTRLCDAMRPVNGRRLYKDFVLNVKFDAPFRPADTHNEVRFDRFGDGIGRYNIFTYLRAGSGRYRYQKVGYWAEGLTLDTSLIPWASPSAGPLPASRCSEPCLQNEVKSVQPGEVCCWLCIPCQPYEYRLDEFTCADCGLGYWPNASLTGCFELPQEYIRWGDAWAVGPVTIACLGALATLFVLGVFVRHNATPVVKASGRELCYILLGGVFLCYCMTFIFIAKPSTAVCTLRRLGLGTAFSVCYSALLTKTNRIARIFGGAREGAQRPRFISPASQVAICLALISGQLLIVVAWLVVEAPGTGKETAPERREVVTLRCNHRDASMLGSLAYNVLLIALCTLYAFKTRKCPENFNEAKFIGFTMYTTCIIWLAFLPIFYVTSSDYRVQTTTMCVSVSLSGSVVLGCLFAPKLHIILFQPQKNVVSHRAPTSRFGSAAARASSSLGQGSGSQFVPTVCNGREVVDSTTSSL

EC50: 56.2 nM
Compound: Cc1ccc(C2CCN(Cc3nc4ccccc4n3C)CC2)cc1
